Tests used:
[1] = general procedure: Fmoc solid-phase peptide synthesis; rink amide resin (0.48 mmol/g, Peptides International, USA); conditions: whole synthesis, analytical HPLC, scale of the general procedure 0.25 mmol, one disulfide bridge, sequence written open; run 1
[2] = general procedure: Fmoc solid-phase peptide synthesis; rink amide resin; conditions: whole synthesis, analytical HPLC, scale 0.25 mmol, one disulfide bridge, sequence written open; run 1

In the case of PEG8-DCAWHOrnGELVWCT-NH2, the “final HPLC purity” value [1] is reported as 90% or higher and the “final HPLC purity” value [2] is reported as 99.9%.

— US20250222123A1 (ABTIS CO., LTD., priority 2022, published 2025)
